Experimental findings from patent publication US20160243074A1 are described below.

Sequences of proteins named here, by UniProt entry; tags and fusion partners are left off. Residues count along the entry.
UniProt P02769, residues 25-607: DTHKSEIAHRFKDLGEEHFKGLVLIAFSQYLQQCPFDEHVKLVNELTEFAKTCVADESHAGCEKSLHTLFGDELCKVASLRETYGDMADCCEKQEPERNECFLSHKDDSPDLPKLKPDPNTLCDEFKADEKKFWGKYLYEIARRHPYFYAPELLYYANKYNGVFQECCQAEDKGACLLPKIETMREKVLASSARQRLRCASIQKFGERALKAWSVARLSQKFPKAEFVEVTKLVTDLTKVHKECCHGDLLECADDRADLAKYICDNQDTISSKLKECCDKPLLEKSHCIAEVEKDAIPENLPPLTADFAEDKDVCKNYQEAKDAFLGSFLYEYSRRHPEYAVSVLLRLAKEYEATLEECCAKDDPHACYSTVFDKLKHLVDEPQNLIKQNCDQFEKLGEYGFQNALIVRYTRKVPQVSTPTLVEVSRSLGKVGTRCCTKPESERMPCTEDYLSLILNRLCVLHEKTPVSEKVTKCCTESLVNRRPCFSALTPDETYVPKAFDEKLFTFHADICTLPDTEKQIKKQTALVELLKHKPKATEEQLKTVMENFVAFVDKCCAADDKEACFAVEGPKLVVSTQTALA

Results are given in words; binding and its absence hold for the method and conditions named. Some binding calls cover weakened binding; strength is not graded here.

The assay addresses T1, Purified SPARC (immobilized onto PVDF membrane) (UniProt P09486).
T1 sequence (looked up): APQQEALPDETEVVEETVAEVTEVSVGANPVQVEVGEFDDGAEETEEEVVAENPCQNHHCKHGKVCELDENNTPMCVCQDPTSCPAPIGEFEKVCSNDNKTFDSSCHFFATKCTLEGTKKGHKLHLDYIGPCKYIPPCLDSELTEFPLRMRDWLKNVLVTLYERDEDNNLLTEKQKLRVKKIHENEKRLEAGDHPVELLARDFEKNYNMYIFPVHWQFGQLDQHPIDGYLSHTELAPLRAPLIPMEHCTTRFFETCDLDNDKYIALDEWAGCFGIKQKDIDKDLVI
The assay is described as follows: filter binding assay, SPARC on PVDF membrane, fluorometer read-out.

For “BSA-Alexa fluor 488 (Molecular Probes) (from UniProt P02769 25-607)”, the binding entry is on record as “binds”.
